Earlier results as cited in US5407925A (priority 1991, dated 1995).
At least one read-out could not be matched to a standard name with certainty.

Conditions: read-out: drug concentration in the cerebrospinal fluid; direct intrathecal administration; cited from earlier work

O=P1(N(CCCl)CCCl)NC(OO)CCO1 (stereo not shown) [4-HC, 4-hydroperoxycyclophosphamide]
concentration: 100 µM
